Binding data for 13 substances are collected here from paper PMC10070233.

Chains of the proteins cited; added tags and fusions are not shown. Lines headed by an entry give the natural chain unless they say otherwise; changes in a name come on top. A line that says so, or that is headed by a name, gives the form on record, which may keep a tag or linker. Residues count along the entry.
UniProt P11362: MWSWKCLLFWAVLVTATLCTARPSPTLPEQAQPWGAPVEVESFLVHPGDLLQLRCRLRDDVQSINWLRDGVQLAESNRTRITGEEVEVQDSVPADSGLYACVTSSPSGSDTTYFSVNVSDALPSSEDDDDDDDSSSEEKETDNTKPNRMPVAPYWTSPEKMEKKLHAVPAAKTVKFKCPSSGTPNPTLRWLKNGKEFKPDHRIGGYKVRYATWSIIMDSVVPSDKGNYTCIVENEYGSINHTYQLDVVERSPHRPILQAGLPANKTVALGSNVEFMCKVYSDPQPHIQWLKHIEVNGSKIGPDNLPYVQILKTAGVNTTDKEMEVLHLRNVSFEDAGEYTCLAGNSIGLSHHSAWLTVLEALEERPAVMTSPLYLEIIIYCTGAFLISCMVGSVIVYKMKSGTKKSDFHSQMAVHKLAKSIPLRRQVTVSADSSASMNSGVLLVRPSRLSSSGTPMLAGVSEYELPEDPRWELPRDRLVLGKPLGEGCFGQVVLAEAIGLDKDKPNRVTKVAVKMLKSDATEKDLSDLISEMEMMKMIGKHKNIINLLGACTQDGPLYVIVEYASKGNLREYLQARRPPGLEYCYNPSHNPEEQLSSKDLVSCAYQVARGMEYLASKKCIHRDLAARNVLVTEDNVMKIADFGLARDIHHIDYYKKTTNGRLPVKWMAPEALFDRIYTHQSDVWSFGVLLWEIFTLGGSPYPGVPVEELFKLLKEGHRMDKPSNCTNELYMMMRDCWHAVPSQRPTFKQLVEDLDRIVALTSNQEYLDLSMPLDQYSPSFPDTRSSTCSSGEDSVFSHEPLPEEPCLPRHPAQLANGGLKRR
extracellular region of FGFR1 fused to the Fc fragment of human IgG1: residues 22-376 of P11362
UniProt P22607: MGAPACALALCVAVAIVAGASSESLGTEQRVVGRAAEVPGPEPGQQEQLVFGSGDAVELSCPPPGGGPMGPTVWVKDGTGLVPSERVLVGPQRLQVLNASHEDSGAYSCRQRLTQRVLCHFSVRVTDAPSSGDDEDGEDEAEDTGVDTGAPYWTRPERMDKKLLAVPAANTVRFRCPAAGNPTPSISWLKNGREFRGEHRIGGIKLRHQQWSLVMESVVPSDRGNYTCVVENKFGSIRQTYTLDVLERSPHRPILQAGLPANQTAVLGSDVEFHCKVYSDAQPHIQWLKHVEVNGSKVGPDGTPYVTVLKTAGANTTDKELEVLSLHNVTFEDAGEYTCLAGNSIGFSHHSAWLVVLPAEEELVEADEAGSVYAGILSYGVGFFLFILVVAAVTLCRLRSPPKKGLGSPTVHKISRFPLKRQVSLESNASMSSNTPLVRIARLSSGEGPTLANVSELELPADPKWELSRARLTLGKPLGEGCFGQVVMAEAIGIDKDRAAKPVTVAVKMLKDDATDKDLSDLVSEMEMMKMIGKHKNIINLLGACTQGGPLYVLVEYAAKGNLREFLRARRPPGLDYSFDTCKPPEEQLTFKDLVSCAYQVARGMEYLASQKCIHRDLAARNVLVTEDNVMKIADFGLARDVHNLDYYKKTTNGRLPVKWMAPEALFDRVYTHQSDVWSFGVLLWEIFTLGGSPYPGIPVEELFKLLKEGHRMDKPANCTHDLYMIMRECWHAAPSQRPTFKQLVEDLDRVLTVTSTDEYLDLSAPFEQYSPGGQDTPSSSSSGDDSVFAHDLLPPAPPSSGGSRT
UniProt P21802: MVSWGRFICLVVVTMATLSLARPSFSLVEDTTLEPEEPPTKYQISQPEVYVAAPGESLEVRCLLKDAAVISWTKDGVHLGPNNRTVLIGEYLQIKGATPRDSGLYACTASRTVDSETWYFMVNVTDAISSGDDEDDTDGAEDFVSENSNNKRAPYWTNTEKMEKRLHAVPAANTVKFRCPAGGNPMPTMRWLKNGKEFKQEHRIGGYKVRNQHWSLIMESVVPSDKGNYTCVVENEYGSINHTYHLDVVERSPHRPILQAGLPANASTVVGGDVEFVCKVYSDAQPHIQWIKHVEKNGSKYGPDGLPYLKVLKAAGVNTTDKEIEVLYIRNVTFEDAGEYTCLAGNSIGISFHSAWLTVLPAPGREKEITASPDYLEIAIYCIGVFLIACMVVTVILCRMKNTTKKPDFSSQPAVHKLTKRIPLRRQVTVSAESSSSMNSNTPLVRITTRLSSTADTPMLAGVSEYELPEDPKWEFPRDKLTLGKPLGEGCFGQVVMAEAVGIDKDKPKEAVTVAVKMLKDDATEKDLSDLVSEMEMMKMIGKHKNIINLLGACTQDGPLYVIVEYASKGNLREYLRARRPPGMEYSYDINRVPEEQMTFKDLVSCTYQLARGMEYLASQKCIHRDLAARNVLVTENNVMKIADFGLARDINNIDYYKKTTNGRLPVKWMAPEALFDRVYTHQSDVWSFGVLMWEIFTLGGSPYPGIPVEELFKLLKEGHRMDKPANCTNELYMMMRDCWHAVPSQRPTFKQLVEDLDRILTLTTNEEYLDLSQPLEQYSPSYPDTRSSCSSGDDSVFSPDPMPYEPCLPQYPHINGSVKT
UniProt P47929: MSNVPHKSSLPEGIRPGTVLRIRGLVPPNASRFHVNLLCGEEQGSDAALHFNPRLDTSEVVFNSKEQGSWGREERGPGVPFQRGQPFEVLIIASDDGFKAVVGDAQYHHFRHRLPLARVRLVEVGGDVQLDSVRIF
UniProt P17931: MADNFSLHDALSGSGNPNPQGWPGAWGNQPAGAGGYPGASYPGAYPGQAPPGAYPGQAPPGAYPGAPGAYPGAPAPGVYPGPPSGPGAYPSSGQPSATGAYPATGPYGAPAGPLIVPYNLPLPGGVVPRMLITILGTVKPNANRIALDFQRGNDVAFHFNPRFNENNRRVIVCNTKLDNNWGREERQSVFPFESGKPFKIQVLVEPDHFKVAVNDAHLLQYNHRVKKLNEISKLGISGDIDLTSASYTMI
UniProt P09382: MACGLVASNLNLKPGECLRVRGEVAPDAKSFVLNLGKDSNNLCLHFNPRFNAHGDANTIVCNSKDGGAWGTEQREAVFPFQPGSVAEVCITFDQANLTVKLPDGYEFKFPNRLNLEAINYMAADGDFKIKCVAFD
UniProt O00214: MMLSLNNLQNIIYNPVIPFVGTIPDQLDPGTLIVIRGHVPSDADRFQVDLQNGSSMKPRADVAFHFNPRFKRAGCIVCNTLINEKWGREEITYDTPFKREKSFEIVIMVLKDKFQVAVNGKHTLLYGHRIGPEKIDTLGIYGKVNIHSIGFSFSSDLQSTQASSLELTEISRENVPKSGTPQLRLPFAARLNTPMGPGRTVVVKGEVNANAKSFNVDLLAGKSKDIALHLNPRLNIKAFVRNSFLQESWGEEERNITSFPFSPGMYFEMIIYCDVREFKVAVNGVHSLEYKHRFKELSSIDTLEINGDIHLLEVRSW

Test [1] addresses extracellular region of FGFR1 fused to the Fc fragment of human IgG1 (human) (UniProt P11362). The test can be described thus: BLI; Octet RED K2; FGFR-Fc variants or Fc (25 μg/mL) immobilised in PBS on Protein-A sensors in a pairwise manner; galectins in solution (50 μg/mL); both purified.
The target is the same in test [2]. Put plainly: dynamic light scattering; DynaPro NanoStar; FGFR1-Fc (1 mg/mL), gal-1, gal-3, gal-7 (1 mg/mL), gal-8 (0.5 mg/mL) and their mixtures, 10 min at RT before measurement; 20 °C, PBS; both purified.
For test [3], the target named is extracellular region of FGFR3 fused to the Fc fragment of human IgG1 (human) (UniProt P22607). Put plainly: BLI; Octet RED K2; FGFR-Fc variants or Fc (25 μg/mL) immobilised in PBS on Protein-A sensors in a pairwise manner; galectins in solution (50 μg/mL); both purified.
Test [4] deals with extracellular region of FGFR2 fused to the Fc fragment of human IgG1 (human) (UniProt P21802). The test is described as above.
Test [5] deals with T1, extracellular region of FGFR4 fused to the Fc fragment of human IgG1 (human) (UniProt P22455).
T1 sequence (chain, N-glycosylated (five putative N-glycosylation sites)): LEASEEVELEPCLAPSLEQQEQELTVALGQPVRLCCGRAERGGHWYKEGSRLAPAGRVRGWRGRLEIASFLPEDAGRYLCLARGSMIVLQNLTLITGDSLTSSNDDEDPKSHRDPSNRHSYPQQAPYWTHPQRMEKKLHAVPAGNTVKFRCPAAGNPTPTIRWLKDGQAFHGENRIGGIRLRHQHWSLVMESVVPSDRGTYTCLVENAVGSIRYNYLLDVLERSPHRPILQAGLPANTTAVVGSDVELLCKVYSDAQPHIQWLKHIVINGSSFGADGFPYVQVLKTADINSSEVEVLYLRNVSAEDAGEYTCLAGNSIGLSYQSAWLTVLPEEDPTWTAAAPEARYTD
Described as above.

Test [6] deals with extracellular region of FGFR1 fused to the Fc fragment of human IgG1 (human) (UniProt P11362). The test can be described thus: BLI; FGFR1-Fc on Protein-A sensors, galectins in solution, in the presence of 25 mM mannose; both purified.
A further test deals with T2, galectin-10 (human) (UniProt Q05315).
T2 sequence: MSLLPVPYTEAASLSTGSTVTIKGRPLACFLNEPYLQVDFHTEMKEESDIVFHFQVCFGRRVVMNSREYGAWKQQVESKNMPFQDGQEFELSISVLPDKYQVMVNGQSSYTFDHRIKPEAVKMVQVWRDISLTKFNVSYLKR
The test can be described thus: far-Western, overlay or dot blot; galectin array: recombinant galectins (0.5 pmol) dot-blotted on PVDF, blocked with 3% BSA, incubated with FGFRs-Fc or Fc (0.9 pM) overnight; detection with anti-Fc mAb-HRP and chemiluminescence; both purified.

Test [7] concerns the target galectin-7 (human) (UniProt P47929). Described as above.
The next test concerns the target T3, galectin-14 (human) (UniProt Q8TCE9).
T3 sequence: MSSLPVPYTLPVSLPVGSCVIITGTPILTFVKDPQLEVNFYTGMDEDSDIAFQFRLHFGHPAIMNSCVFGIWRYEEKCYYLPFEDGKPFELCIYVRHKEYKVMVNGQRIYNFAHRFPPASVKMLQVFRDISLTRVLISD
Described as above.

In test [8] the target is galectin-3 (human) (UniProt P17931). The description is as above.
Test [9] addresses galectin-1 (human) (UniProt P09382). The test is described as above.
Test [10] addresses T4, galectin-2 (human) (UniProt P05162).
T4 sequence: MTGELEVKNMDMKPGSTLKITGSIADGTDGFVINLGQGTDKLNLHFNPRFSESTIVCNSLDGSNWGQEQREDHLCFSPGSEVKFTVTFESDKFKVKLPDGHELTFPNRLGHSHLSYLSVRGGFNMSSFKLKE
The description is as above.

Test [11] has as its target galectin-8 (human) (UniProt O00214). Put plainly: pull-down; purified His-tagged galectins (10-50 μg) bound to Ni-NTA resin, incubated with clarified cell lysate for 1 h at 4 °C in lysis buffer (50 mM Tris, 150 mM NaCl, 1 mM EDTA, 0.1% Nonidet P-40, pH 8.0); western blotting for FGFRs; only the target purified.
Test [12] concerns the target galectin-7 (human) (UniProt P47929). The description is as above.
The target in test [13] is galectin-3 (human) (UniProt P17931). The description is as above.
The target of test [14] is galectin-1 (human) (UniProt P09382). The test is described as above.
Test [15] addresses T4, galectin-2 (human). Described as above.
The target of test [16] is galectin-8 (human) (UniProt O00214). Put plainly: far-Western, overlay or dot blot; galectin array: recombinant galectins (0.5 pmol) dot-blotted on PVDF, blocked with 3% BSA, incubated with FGFRs-Fc or Fc (0.9 pM) overnight; detection with anti-Fc mAb-HRP and chemiluminescence; both purified.

These are yes or no findings as the source states them, for the method shown. For part of these data: Binding seen in cells or lysates may run through a third protein. Some binding calls cover weakened binding; strength is not graded here. For part of these data: Sequences can lack the tags named with a protein.

On to “N-terminal carbohydrate recognition domain of galectin-8 fused to the AviTag (from UniProt O00214 1-152) (domain or fragment)”, for which the binding entry in [1] is given as “binds”.

As to galectin-7 (from UniProt P47929 1-136), the binding entry in test [2], in test [3], in [4], in test [1], in test [5] and in test [6] was “binds” in each case.

In the case of galectin-8 (from UniProt O00214 1-317), the binding entry in test [2], in test [3], in [4], in [1], in test [5] and in test [6] was “binds” in each case.

For the substance “extracellular region of FGFR2 fused to the Fc fragment of human IgG1 (from UniProt P21802 22-377) (Fc fusion)”, the binding entry in the test with galectin-10 (human), with galectin-7 (human) [7], with galectin-14 (human), in the test with galectin-3 (human) [8], with galectin-1 (human) [9] and in the test with galectin-2 (human) [10] was “binds” in each case.

In the case of galectin-1 (from UniProt P09382 1-135), the binding result in test [2], in test [3], in test [4], in test [1], in test [5] and in test [6] was “binds” in each case.

Turning to “full-length FGFR3 in U2OS cells stably transfected with FGFR3 (from UniProt P22607 23-806) (receptor)”, the binding result with galectin-8 (human) [11], with galectin-7 (human) [12], with galectin-3 (human) [13] and in the test with galectin-1 (human) [14] was “binds” in each case.

As to galectin-3 (from UniProt P17931 1-250), the binding entry in test [3], in test [4] and in test [5] was “binds” throughout.

As for “full-length FGFR1 in U2OS cells stably transfected with FGFR1 (from UniProt P11362 22-822) (receptor)”, the binding entry in the test with galectin-8 (human) [11] is reported as “binds”; with galectin-7 (human) [12] it was “binds”; in the test with galectin-1 (human) [14], “binds”; in the test with galectin-2 (human) [15], “binds weakly”.

As to “FGFR1 expressed by a panel of human cell lines (JIMT-1, G292, DMS114) (from UniProt P11362 22-822) (receptor)”, the binding result with galectin-8 (human) [11], in the test with galectin-7 (human) [12] and with galectin-1 (human) [14] was “binds” each time.

As to “extracellular region of FGFR3 fused to the Fc fragment of human IgG1 (from UniProt P22607 23-375) (Fc fusion)”, the binding result in the test with galectin-10 (human), in the test with galectin-8 (human) [16], in the test with galectin-7 (human) [7], in the test with galectin-14 (human), with galectin-3 (human) [8] and with galectin-1 (human) [9] was “binds” throughout. Also, the binding result with galectin-2 (human) [10] is recorded as “binds”.

As to “extracellular region of FGFR4 fused to the Fc fragment of human IgG1 (from UniProt P22455 22-369) (Fc fusion)”, the binding entry with galectin-10 (human), with galectin-8 (human) [16], with galectin-7 (human) [7], with galectin-14 (human), in the test with galectin-3 (human) [8] and in the test with galectin-1 (human) [9] was “binds” each time. In addition, the binding result with galectin-2 (human) [10] is “binds”.

Turning to “full-length FGFR2 in U2OS cells stably transfected with FGFR2 (from UniProt P21802 22-821) (receptor)”, the binding entry with galectin-8 (human) [11], with galectin-7 (human) [12] and with galectin-3 (human) [13] was “binds” throughout.

As for “full-length FGFR4 in U2OS cells stably transfected with FGFR4 (from UniProt P22455 22-802) (receptor)”, the binding result in the test with galectin-8 (human) [11], with galectin-7 (human) [12], with galectin-3 (human) [13] and with galectin-1 (human) [14] was “binds” throughout.
